Primary screen of a compound library

Sequences of proteins named here, by UniProt entry; tags and fusion partners are left off. Residues count along the entry.
UniProt P9WNZ1, whole entry: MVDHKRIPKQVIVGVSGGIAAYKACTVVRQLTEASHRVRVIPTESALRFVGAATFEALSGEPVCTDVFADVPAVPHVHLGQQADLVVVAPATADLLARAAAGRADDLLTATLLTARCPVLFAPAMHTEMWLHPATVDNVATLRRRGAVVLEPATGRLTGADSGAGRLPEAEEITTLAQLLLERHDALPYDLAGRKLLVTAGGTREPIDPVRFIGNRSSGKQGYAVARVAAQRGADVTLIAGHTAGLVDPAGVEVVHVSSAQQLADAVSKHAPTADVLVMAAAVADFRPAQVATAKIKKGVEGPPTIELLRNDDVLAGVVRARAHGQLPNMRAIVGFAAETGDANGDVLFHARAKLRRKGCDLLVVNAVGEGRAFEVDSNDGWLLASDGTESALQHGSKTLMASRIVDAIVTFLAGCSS
UniProt A4I591, 1-473: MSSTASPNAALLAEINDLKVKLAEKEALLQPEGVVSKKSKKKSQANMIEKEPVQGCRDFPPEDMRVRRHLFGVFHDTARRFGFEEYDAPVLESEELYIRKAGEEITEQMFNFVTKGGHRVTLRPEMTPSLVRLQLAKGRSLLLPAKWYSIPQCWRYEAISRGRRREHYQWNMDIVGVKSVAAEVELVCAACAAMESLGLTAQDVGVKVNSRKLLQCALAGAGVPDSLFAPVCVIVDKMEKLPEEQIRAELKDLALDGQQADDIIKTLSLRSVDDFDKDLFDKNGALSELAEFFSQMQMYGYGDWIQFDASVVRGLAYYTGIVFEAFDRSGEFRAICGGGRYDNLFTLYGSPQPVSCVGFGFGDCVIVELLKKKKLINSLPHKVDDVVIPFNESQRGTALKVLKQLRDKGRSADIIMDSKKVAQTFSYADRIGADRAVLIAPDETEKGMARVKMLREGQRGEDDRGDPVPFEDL

CoaBC: 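Coenzyme A biosynthesis protein CoaBC, Mycobacterium tuberculosis (UniProt P9WNZ1). Enzyme assay of CoaBC with a phosphate dye (Biomol Green) read at 650 nm. Tested at 30 µM. Higher reads as stronger inhibition, judged from the few compounds that gave an IC50. Most strong results did not repeat in a second test. Size under these conditions: about 67,000 compounds, about 40 of them at 50% or above in at least one test.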
LiHisRS: 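Enzyme assay of histidyl-tRNA synthetase; the read-out is not stated. Target: Histidine-tRNA ligase, Leishmania infantum (UniProt A4I591). Tested at 30 µM. The record gives no direction; compounds that gave an IC50 in retests scored well above the rest, so higher reads as stronger inhibition. The assay is labelled LdHisRS but filed under L. infantum. About 69,000 compounds were tested under these conditions; 0.6% (about 410) showed 50% or more at least once.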
Leishmania in macrophages: 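Cell assay of Leishmania donovani living inside macrophages; the read-out is not stated. Tested at 30 µM. Higher reads as stronger inhibition (inferred: compounds with an IC50 in retests scored well above the rest). Of about 69,000 compounds tested this way, about 1,000 (1.5%) reached 50% or more in at least one test.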

Results are given as percent effect.
The controls that fix the scale are not given in the record; negative values are as filed.
This is an unselected part of the compounds tested.
Two or more numbers in one place are separate tests of the same structure; such repeats can differ widely.
A dash means the value is not listed here; it may have been measured.

structure | CoaBC | LiHisRS | Leishmania in macrophages
CCOc1cc2c(cc1CNC(Cc1cccs1)c1nccs1)OCO2 (stereo unspecified) | -3.942% | 13.04% | -
O=C(NCc1cnc2n1CCN(CC1CCOCC1)C2)c1ccno1.O=C(O)C(F)(F)F | - | - | -6.994%
O=C(Cn1nc(-c2ccc(F)cc2)oc1=O)NCc1ccncc1 | 6.21% | 16.07% | 13.99%
Cc1nn(C)cc1C(=O)N1CCCC(c2nccn2CC2CCC2)C1 (stereo unspecified) | 1.139% | 15.66% | 41.57%
O=C(Cc1cccc(F)c1F)NS(=O)(=O)c1cncc(Cl)c1 | 5.952% | 9.821% | -130.3%
c1csc(-c2noc(COCC3CCCO3)n2)c1 (stereo unspecified) | -7.323% | 18.31% | 8.451%
Cc1cnc(N2CC[C@H]3[C@@H]2CCC(=O)N3c2ccccc2)nc1 | -1.98% | 13.51% | -
CC(C)(C)C(=O)N1CCCc2c(cnn2-c2ccccc2)C1 | -3.641% | -17.14% | -17.61%
Cc1cc(N2CCCC(OC(=O)CCc3cnn(C)c3)C2)nc(C)n1 (stereo unspecified) | 11.44% | 12.68% | 5.314%
O=C(Cn1cnc(-c2cccs2)cc1=O)Nc1cccnc1 | 3.171% | 19.13% | 12.62% & 10.79%
CCCC(=O)N1CCC(C(=O)NCCNc2ncccn2)CC1 | 5.263% | 12.5% | 0.253%
CCC(=O)NCC1(O)CCC(C(C)(C)C)CC1 (stereo unspecified) | 0% | 9.375% | 3.152%
Cn1ccc(C(=O)N2CCC[C@]3(C[C@@H](OCc4ccccn4)CO3)C2)n1 | -2.828% | 12.03% | -
[H][C@]12CC[C@](O)(c3ccc(C)cc3)[C@@]1([H])CN(S(=O)(=O)CC)C2 | - | - | 19.66% & 14.8%
CCOc1ncnc2c1CCN(C(=O)NCc1cccnc1)CC2.O=C(O)C(F)(F)F | - | - | -8.197%
COc1cc(N2C[C@H]3CCC[C@@H](CN4CCOCC4)[C@H]3C2)ncn1 | 5.071% | 17.43% | -
O=C(NCC1CCCO1)c1cc(Sc2ncccn2)ccn1 (stereo unspecified) | -19.53% | 19.1% | -17.2%
CNC(=O)CN([C@H]1C[C@H]2CCOC[C@H]2C1)S(=O)(=O)c1ccccc1 | 0.8589% | 4.124% | -
Cc1cc(C)n(-c2ccc(C(C)NS(N)(=O)=O)cc2)n1 (stereo unspecified) | 2.419% | 8.772% | 6.157%
N[C@H]1CN(Cc2cnc(N3CCCC3)nc2)C[C@@H]1C1CC1 | -22.98% | 0% | 17.06%
CN1CCCCC12CCN(c1nncs1)CC2 | -0.6316% | 6.195% | -
COCCC(=O)N1CCCC(c2noc3nc(C)cc(C(F)(F)F)c23)C1 (stereo unspecified) | 0.6196% | 2% | 2.113%
CC(C)n1cnnc1CN(C)CC1CCCNC1 (stereo unspecified) | - | 12.5% | 32.72%
Cc1nc[nH]c1CN1CCCC(CNC(=O)c2ccncn2)C1 (stereo unspecified) | 0.2141% | -3.333% | 28.38%
CS(=O)(=O)N[C@H]1CN(C(=O)CCc2ccco2)C[C@@H]1C1CC1 | 1.088% | 6.452% | 9.724%
Cc1nc(NC(=O)c2ccc(-n3ncc(C#N)c3N)cc2)sc1C | 3.15% | 13.56% | 26.88%
Cc1ccc(C(=O)N(Cc2cccnc2)C[C@@H]2CCC(=O)N2)s1 | - | -5.833% | -22.58%
Cc1cc(C)cc(C(C)NCc2nnc(C)s2)c1 (stereo unspecified) | 2.457% | 10.32% | 2.622%
Cc1nc(C2CCN(C(=O)c3cccnc3)CC2)c2sccn12 | 0.8333% | 5.556% | 5.324%
COc1ncccc1NC(=O)N(Cc1ccccn1)C1CC1 | 4.301% | 13.46% | 11.3%
Cc1ccc(NC(=O)Cc2c(C)nc3c(c2C)c(=O)[nH]n3C)cc1F | 1.124% | 13.22% | 31.77%
CCN(Cc1noc(C2CC2)n1)Cc1ccc(C#N)cc1F | 8.657% | 8.475% | -10.95%
O=C(C[S+]([O-])Cc1cccc(F)c1)NC1CCCC1 (stereo unspecified) | 2.206% | 20% | -11.81%
CC(C)N(C)Cc1cnc2n1CCN(Cc1ccsc1)C2.O=C(O)C(F)(F)F.O=C(O)C(F)(F)F | - | - | 4.104%
O=C(CN1CCc2cncnc2C1)Nc1ccc(Cl)cn1 | 2.611% | 15.52% | 5.368%
O=C(c1ccccn1)N1C[C@@H]2CC[C@H](C1)N(C(=O)CCC(F)(F)F)C2 | -0.3619% | 12% | -
N#Cc1ccsc1NC(=O)CN1CCn2c(nnc2C2CC2)C1 | 4.779% | 11.54% | 18.53%
CNS(=O)(=O)c1ccc(C(=O)N2CCCC2c2cnn(C)c2)o1 (stereo unspecified) | -5.175% | 13.64% | 2.152%
NCC1(CN2CCOCC2)CCCCC1 | -3.043% | 4.712% | 17.05%
Cc1cccc(-c2nc(CN3CCc4cncnc4C3)no2)c1 | 3.864% | 19.64% | -33.5%
COCCN1CCC2(CC1)CC(NCc1cncn1C)c1ccccc12.O=C(O)C(F)(F)F.O=C(O)C(F)(F)F (stereo unspecified) | - | - | 17.77%

The last 3 entries again:

| structure | CoaBC | LiHisRS | Leishmania in macrophages |
|---|---|---|---|
| `NCC1(CN2CCOCC2)CCCCC1` | -3.043% | 4.712% | 17.05% |
| `Cc1cccc(-c2nc(CN3CCc4cncnc4C3)no2)c1` | 3.864% | 19.64% | -33.5% |
| `COCCN1CCC2(CC1)CC(NCc1cncn1C)c1ccccc12.O=C(O)C(F)(F)F.O=C(O)C(F)(F)F` (stereo unspecified) | - | - | 17.77% |

Measurements from “University of Dundee, Small-Polar-MMV Screening Library” (2021), ChEMBL document CHEMBL3988442.